Results as given in publication PMC9065186.
Results are given in words; binding and its absence hold for the method and conditions named. Binding seen in cells or lysates may run through a third protein. Some binding calls cover weakened binding; strength is not graded here. Where a sequence is shown, tags or fusion partners need not be part of it. Values belong to the molecule of their own block, whether it stands above or below them.

The chains behind the UniProt entries cited, without tags or fusion partners.
UniProt O75643: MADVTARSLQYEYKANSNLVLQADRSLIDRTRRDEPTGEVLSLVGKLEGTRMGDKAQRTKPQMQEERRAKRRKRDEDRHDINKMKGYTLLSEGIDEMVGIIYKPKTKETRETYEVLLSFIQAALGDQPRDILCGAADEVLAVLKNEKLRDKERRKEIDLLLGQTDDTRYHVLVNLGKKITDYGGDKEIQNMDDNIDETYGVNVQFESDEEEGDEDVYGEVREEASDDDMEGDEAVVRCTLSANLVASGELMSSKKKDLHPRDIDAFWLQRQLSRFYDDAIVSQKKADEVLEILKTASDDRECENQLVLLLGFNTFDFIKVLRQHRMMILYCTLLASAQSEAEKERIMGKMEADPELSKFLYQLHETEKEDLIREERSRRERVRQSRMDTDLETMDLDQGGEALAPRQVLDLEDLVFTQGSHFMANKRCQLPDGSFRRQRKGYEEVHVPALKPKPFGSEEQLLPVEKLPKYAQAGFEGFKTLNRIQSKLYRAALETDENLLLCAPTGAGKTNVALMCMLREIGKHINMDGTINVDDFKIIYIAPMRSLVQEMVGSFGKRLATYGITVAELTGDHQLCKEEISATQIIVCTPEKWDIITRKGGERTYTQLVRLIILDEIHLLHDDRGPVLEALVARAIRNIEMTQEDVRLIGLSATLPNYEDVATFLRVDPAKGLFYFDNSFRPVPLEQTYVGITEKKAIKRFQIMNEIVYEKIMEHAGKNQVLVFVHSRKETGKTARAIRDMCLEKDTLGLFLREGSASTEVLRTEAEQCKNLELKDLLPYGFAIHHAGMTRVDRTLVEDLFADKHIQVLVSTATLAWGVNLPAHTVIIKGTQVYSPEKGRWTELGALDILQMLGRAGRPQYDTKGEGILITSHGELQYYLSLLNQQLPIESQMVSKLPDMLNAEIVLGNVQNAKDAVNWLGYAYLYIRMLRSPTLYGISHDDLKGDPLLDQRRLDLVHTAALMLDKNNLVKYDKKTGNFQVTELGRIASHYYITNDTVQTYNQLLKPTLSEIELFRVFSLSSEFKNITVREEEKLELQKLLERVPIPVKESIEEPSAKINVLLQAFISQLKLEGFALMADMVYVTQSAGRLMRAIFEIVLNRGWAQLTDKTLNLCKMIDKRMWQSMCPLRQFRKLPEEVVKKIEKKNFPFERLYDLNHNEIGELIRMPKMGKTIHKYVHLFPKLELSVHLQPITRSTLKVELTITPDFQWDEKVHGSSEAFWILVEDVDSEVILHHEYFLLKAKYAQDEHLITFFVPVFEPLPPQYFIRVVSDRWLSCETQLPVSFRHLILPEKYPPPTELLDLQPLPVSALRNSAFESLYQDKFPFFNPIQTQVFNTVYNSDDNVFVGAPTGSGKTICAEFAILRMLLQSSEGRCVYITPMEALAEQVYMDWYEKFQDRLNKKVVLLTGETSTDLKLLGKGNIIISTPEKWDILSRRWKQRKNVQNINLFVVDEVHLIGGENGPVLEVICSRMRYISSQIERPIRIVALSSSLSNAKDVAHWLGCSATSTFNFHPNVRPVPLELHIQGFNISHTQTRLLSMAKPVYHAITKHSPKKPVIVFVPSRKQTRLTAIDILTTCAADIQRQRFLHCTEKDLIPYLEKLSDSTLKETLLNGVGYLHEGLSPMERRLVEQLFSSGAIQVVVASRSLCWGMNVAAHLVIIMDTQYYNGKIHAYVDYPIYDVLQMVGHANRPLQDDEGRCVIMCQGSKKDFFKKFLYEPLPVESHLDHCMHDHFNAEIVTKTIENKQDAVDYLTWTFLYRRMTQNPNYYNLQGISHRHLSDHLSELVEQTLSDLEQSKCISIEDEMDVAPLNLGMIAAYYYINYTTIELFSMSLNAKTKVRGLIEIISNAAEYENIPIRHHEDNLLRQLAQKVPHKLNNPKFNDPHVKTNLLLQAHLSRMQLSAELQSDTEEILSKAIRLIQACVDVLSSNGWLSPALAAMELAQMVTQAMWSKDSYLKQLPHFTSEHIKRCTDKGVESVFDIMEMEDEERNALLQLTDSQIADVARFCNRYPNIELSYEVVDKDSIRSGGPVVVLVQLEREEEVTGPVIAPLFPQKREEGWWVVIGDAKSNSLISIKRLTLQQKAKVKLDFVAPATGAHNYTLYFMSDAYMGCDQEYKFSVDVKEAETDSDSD

Columns and labels:
GFP-NONO [1] = molecular target: T1, GFP-NONO (UniProt Q15233); assay: condition: only cells treated with 100 nM rapamycin, without NEAT1_2 knockdown; co-IP; GFP-NONO co-IP from extracts of SNU423 cells treated with 100 nM rapamycin, without NEAT1_2 knockdown
T1 sequence: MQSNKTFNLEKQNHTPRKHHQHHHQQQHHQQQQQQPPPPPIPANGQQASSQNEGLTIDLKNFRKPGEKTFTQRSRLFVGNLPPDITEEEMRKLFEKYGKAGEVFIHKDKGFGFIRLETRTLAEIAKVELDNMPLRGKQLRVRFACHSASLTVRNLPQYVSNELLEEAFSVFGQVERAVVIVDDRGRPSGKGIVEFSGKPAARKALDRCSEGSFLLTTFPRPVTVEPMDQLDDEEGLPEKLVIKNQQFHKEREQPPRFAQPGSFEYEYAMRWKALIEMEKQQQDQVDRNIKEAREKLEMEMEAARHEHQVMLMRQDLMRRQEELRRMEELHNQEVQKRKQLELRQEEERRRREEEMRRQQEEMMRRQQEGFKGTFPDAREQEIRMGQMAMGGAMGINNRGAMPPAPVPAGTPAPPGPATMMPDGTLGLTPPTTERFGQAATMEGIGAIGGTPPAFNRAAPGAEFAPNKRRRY

GFP-NONO [2] = molecular target: T1, GFP-NONO; assay: co-IP; GFP-NONO co-IP from extracts of SNU423 cells; cells untreated, or treated with 100 nM rapamycin after NEAT1_2 knockdown

binding (GFP-NONO [1]): no binding
binding (GFP-NONO [2]): binds
Molecule: BRR2 (from UniProt O75643 1-2136)

binding (GFP-NONO [1]): no binding
binding (GFP-NONO [2]): binds
B1: PRPF6 (protein, UniProt O94906 1-941)
chain: MNKKKKPFLGMPAPLGYVPGLGRGATGFTTRSDIGPARDANDPVDDRHAPPGKRTVGDQMKKNQAADDDDEDLNDTNYDEFNGYAGSLFSSGPYEKDDEEADAIYAALDKRMDERRKERREQREKEEIEKYRMERPKIQQQFSDLKRKLAEVTEEEWLSIPEVGDARNKRQRNPRYEKLTPVPDSFFAKHLQTGENHTSVDPRQTQFGGLNTPYPGGLNTPYPGGMTPGLMTPGTGELDMRKIGQARNTLMDMRLSQVSDSVSGQTVVDPKGYLTDLNSMIPTHGGDINDIKKARLLLKSVRETNPHHPPAWIASARLEEVTGKLQVARNLIMKGTEMCPKSEDVWLEAARLQPGDTAKAVVAQAVRHLPQSVRIYIRAAELETDIRAKKRVLRKALEHVPNSVRLWKAAVELEEPEDARIMLSRAVECCPTSVELWLALARLETYENARKVLNKARENIPTDRHIWITAAKLEEANGNTQMVEKIIDRAITSLRANGVEINREQWIQDAEECDRAGSVATCQAVMRAVIGIGIEEEDRKHTWMEDADSCVAHNALECARAIYAYALQVFPSKKSVWLRAAYFEKNHGTRESLEALLQRAVAHCPKAEVLWLMGAKSKWLAGDVPAARSILALAFQANPNSEEIWLAAVKLESENDEYERARRLLAKARSSAPTARVFMKSVKLEWVQDNIRAAQDLCEEALRHYEDFPKLWMMKGQIEEQKEMMEKAREAYNQGLKKCPHSTPLWLLLSRLEEKIGQLTRARAILEKSRLKNPKNPGLWLESVRLEYRAGLKNIANTLMAKALQECPNSGILWSEAIFLEARPQRRTKSVDALKKCEHDPHVLLAVAKLFWSQRKITKAREWFHRTVKIDSDLGDAWAFFYKFELQHGTEEQQEEVRKRCESAEPRHGELWCAVSKDIANWQKKIGDILRLVAGRIKNTF
